Measured values published in PubChem BioAssay AID493014 (National Center for Advancing Translational Sciences (NCATS), 2011).
The list shows a part of the results. Further columns of the screen follow, without active or inactive calls. Compounds called inactive in the main read-out are mostly missing here. Potencies come from curve fits of mixed quality, noted in brackets.

Test: qHTS Assay to Find Inhibitors of Chronic Active B-Cell Receptor Signaling
Conditions: ABC-DLBCL IkBa-CBG/CBR reporter, luminescence ratio (green luciferase fused to IkBa over red control in TMD8 lymphoma cells), 4 h
Method in brief: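 Compounds up to 46 uM were incubated four hours with TMD8 cells whose green CBG68 luciferase is fused to IkappaBalpha; red CBR luminescence normalised the signal, and concentration-effect curves were fitted to fusion, red and ratio data.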

[1] = measured here: CBR red luminescence, cell number
[2] = measured here: IkBa-CBG green luminescence

| SMILES | AC50 [1] | AC50 [2] |
| --- | --- | --- |
| COC(=O)[C@]1(C)CCC[C@@]2(C)C3CC[C@@]4(C)C[C@]3(CCC21)CC(=O)N4Cc1ccc(OC)cc1 (stereo partly drawn) | 2.91 µM [falling, partial curve, poor fit] |  |
| COc1ccc(NC(=O)/C(=C\c2ccncc2)NC(=O)c2ccccc2)cc1 | 14.1 µM [falling, partial curve, poor fit] |  |
| Cc1ccc(/C=N/NC(=O)c2ccccn2)o1 | 29.1 µM [falling, single point] |  |
| CC(NC(=O)c1ccco1)C(=O)N1CC=C(c2ccccc2)CC1 (stereo not drawn) | 2.59 µM [rising, full curve, poor fit] |  |
| Cc1ccc(C(=O)CCNc2ccc(F)c(Cl)c2)o1 | 3.16 µM [rising, full curve, poor fit] |  |
| CC(C)(C)Nc1nc(-c2ccc3c(c2)CCN3C(=O)C2CC2)cs1 | 1.58 µM [rising, full curve, poor fit] |  |
| Cn1c(SCC(=O)N2CCCc3ccccc32)ncc(C(=O)Nc2ccc(F)cc2)c1=O | 35.5 µM [falling, single point] |  |
| Cc1ccc(C(=O)Nc2ncc(Cc3ccc(SC(F)F)cc3)s2)cc1 | 11.6 µM [rising, partial curve, poor fit] | 3.66 µM [falling, full curve] |
| Cc1ncoc1C(=O)NCCC(c1ccccc1)c1ccccc1 | 14.1 µM [falling, partial curve, poor fit] |  |
| COc1ccc(NC(=O)CSc2nc(N)c(-c3ccccc3)c(=O)[nH]2)cc1 | 6.51 µM [rising, single point] |  |
| CCCCN1C(=O)C(NC(=O)C2CC2)(C(F)(F)F)C2=C1CC(C)(C)CC2=O (stereo not drawn) | 5.62 µM [rising, partial curve, poor fit] |  |
| CCc1nnc(NC(=O)c2cc(-c3ccccc3)nn2-c2ccccc2)s1 | 5.01 µM [falling, partial curve, poor fit] |  |
| CN1C(=O)C2(Nc3ccccc3-c3nc4ccccc4n32)c2ccccc21 (stereo not drawn) | 22.4 µM [falling, single point] |  |
| CCOC(=O)c1c(C)c2c(=O)[nH]cnc2n1-c1ccccc1 | 1 µM [rising, full curve, poor fit] |  |
| CCNC(=O)c1sc(-c2ccccc2)nc1C | 3.16 µM [rising, single point] |  |
| CCn1c(SCC(=O)N2CCCc3ccccc32)nc2ccccc2c1=O | 4.47 µM [falling, full curve] |  |
| Cc1nn(CC(=O)N2CCc3ccccc32)c(C)c1S(=O)(=O)NC(C)(C)C | 2.91 µM [rising, partial curve, poor fit] |  |
| Cc1ccc(S(=O)(=O)N(C)c2ccc(C(=O)Nc3ccccn3)cc2)cc1 | 23.1 µM [falling, single point] |  |
| Cc1c(Cl)cccc1NC(=O)C1NC(=O)CC1c1ccccc1 (stereo not drawn) | 3.26 µM [falling, partial curve, poor fit] |  |
| Cc1ccc(S(=O)(=O)NC(CC(C)C)C(=O)Oc2ccc3c4c(c(=O)oc3c2)CCC4)cc1 (stereo not drawn) | 35.5 µM [falling, single point] |  |
| Cc1ccc(C)c(N2CCN(C(=O)c3ccc(CS(=O)Cc4ccc(Cl)cc4)o3)CC2)c1 (stereo not drawn) | 10 µM [falling, partial curve] |  |
| O=C(/C=C\c1ccc2c(c1)OCO2)NC1CC(=O)N(c2ccc(F)cc2)C1 (stereo not drawn) | 25.1 µM [falling, single point] |  |

| SMILES | AC50 [1] | AC50 [2] |
| --- | --- | --- |
| COCCSc1ccccc1C(=O)Nc1ccccc1C(C)C | 15.8 µM [rising, single point] |  |
| O=C1CC(c2ccco2)CC2=C1C(c1ccccc1)n1nc(C(F)(F)F)nc1N2 (stereo not drawn) | 29.1 µM [falling, single point] |  |
| Cc1nnc2ccc(-c3ccc(NS(=O)(=O)c4ccccc4F)cc3)nn12 | 9.2 µM [rising, partial curve, poor fit] |  |
| N/C(=N\OC(=O)c1ccccc1F)c1ccc([N+](=O)[O-])cc1 | 0.562 µM [rising, full curve, poor fit] |  |
| O=C(CSc1nnc2n(C3CCCC3)c(=O)c3ccccc3n12)N1CCCCCC1 | 16.4 µM [falling, single point] |  |
| CNC(=S)N/N=C(\C)c1ccc(N2CCOCC2)cc1 | 0.92 µM [falling, full curve] | 23.1 µM [falling, single point] |
| Cc1nn(-c2ccc(C(=O)O)cc2)c(N)c1-c1ccccc1 | 2 µM [falling, full curve] |  |
| CCCc1cc(=O)n2[nH]c(-c3ccccc3)cc2n1 | 7.31 µM [falling, partial curve, poor fit] |  |
| O=C(OCc1nc2ccccc2s1)[C@@H]1CCCN1S(=O)(=O)c1ccccc1F | 0.651 µM [rising, partial curve, poor fit] |  |
| Cc1ccc(C)c(OCC(=O)N2CCc3ccccc3C2)c1 | 8.91 µM [falling, partial curve] |  |
| N#C/C(=C\c1cccs1)C(=O)NCc1ccccc1 | 4.11 µM [rising, partial curve, poor fit] |  |
| Cc1cc(=O)oc(C)c1C(=O)NCc1ccco1 | 3.16 µM [falling, single point] |  |
| CCOc1ccc(N)c(SSc2cc(OCC)ccc2N)c1 | 14.1 µM [falling, partial curve, poor fit] | 17.8 µM [falling, single point] |
| CCn1c(SCc2ccc(F)cc2)nc2c(c1=O)SCC2 | 35.5 µM [falling, single point] |  |
| C=CCNC(=O)C(C)N1C(=O)c2ccccc2C1=O (stereo not drawn) | 29.1 µM [rising, single point] |  |
| O=C(O)c1cccc(NC2=C(N3CCOCC3)C(=O)c3ccccc3C2=O)c1 | 17.8 µM [falling, single point] |  |
| COc1ccccc1/C=C/C=C1\Oc2c(ccc(O)c2CN2CCN(CCO)CC2)C1=O | 20.6 µM [falling, partial curve] |  |
| Cc1cccc2cn[nH]c12 | 0.398 µM [falling, full curve, poor fit] |  |
| O=C(Nc1ccc(Oc2ccc(NC(=O)c3ccco3)c(NC(=O)c3ccco3)c2)cc1)c1ccco1 | 3.26 µM [rising, full curve, poor fit] |  |
| CC(C)(C)C1CCc2c(sc(N)c2C(N)=O)C1 (stereo not drawn) | 35.5 µM [falling, single point] |  |
| CCOc1ccc(C(=O)NC(=S)Nc2ccccc2OC)cc1[N+](=O)[O-] | 23.1 µM [rising, partial curve] |  |
| CCOC(=O)CSc1nnc(-c2ccccc2)c(=O)[nH]1 | 32.6 µM [falling, partial curve, poor fit] |  |

| SMILES | AC50 [1] | AC50 [2] |
| --- | --- | --- |
| CC(Oc1ccc(F)cc1)C(=O)Nc1cc(C(F)(F)F)ccc1-n1cncn1 (stereo not drawn) | 7.31 µM [rising, partial curve] |  |
| CCOC(=O)CSc1nc(C)cc(C)c1C#N | 4.11 µM [rising, full curve] |  |
| CN(c1ccccc1)S(=O)(=O)c1ccc(C(=O)OCC(=O)N2CCOCC2)cc1 | 0.092 µM [falling, full curve, poor fit] |  |
| COc1ccc(C(=S)Nc2ccc(N(C)C)cc2)cc1 | 29.1 µM [rising, single point] |  |
| CC1CCCCC1n1c(=S)[nH]c2ccccc2c1=O (stereo not drawn) | 1.58 µM [rising, full curve] | 10 µM [falling, partial curve, poor fit] |
| COc1ccc(C(=O)C2CCCN(C3Cc4ccccc4C3)C2)c(OC)c1 (stereo not drawn) | 0.562 µM [rising, full curve, poor fit] |  |
| Cn1c(C=O)c(-c2ccc3c(c2)OCCO3)c2ccccc21 | 7.31 µM [rising, partial curve] |  |
| Cn1c(Cn2c(=O)sc3ccccc32)nnc1SCc1ccccc1F | 6.51 µM [falling, single point] |  |
| Nc1nc(Cl)nc2c1ncn2[C@H]1C[C@H](O)[C@@H](CO)O1 | 8.2 µM [rising, partial curve] |  |
| Cc1cccc(NC(=O)Nc2ccc(Cl)cc2)n1 | 0.112 µM [rising, full curve] |  |
| Cc1ccc(/C=C/S(=O)(=O)NCC(=O)OCC(=O)Nc2c(F)cccc2F)cc1 | 25.9 µM [falling, single point] |  |
| S=C(Nc1ccccc1)Nc1cccc(Cl)c1Cl | 35.5 µM [rising, single point] |  |
| Cc1nc2ncccn2c1-c1csc(Nc2ccc(O)cc2)n1 | 1.78 µM [rising, partial curve] |  |
| CCNC(=O)c1ccccc1NC(=O)c1cccc(S(=O)(=O)N2CCC(C)CC2)c1 | 2.06 µM [rising, partial curve, poor fit] |  |
| CC(C)C(NC(=O)c1ccc(C(C)(C)C)cc1)C(=O)OCC(=O)NC(=O)Cc1ccccc1 (stereo not drawn) | 29.1 µM [falling, single point] |  |
| COc1ccc(C(=O)NN2C(=S)N(c3ccc(OC)cc3)C(=O)C2CC(N)=O)cc1 (stereo not drawn) | 35.5 µM [rising, single point] |  |
| COc1cc(NC(=O)CCc2ccccc2)c(C(=O)O)cc1OC | 17.8 µM [falling, single point] |  |
| C=CCNC(=O)c1onc(CSc2cccc(OCC)c2)c1C(=O)O | 22.4 µM [falling, single point] |  |
| C#CCNC(=O)C1=C[C@H](C2CCCCC2)C[C@H](OCCCCO)O1 | 3.55 µM [rising, full curve, poor fit] |  |
| O=C(NCc1ccco1)Nc1cccc([N+](=O)[O-])c1 | 5.62 µM [rising, full curve, poor fit] |  |

In a second layout: 3 of the compounds above.
Cc1nc2ncccn2c1-c1csc(Nc2ccc(O)cc2)n1
  AC50 [1]: 1.78 µM [rising, partial curve]
CCNC(=O)c1ccccc1NC(=O)c1cccc(S(=O)(=O)N2CCC(C)CC2)c1
  AC50 [1]: 2.06 µM [rising, partial curve, poor fit]
CC(C)C(NC(=O)c1ccc(C(C)(C)C)cc1)C(=O)OCC(=O)NC(=O)Cc1ccccc1 (stereo not drawn)
  AC50 [1]: 29.1 µM [falling, single point]
